Four molecules from patent US20260152567A1 (CSPC MEGALITH BIOPHARMACEUTICAL, published 2026) can be followed below.

Assay [1] deals with cynomolgus monkey CD73 protein (cynomolgus monkey). Kind of assay: BLI (Fortebio), cynomolgus CD73 on HIS1K biosensors, antibody as analyte. (Biolayer interferometry detects binding as a change in optical thickness at a sensor tip.)
Assay [2] addresses cynomolgus monkey full-length CD73 on CHO-K1 cells (cynomolgus monkey). Description: flow cytometry on CHO-K1 cells expressing monkey full-length CD73. (In general: Flow cytometry measures light scatter and fluorescence of single cells or particles in a stream.)

These are yes or no findings as the source states them, for the method shown. Some entries that bind do so weakly or less than the wild type.

B1: Hab1F2F9.12 (antibody, human IgG1, kappa, L234A L235A, V domains shown)
VH: QVQLVQSGAEVKKPGASVKVSCKASGYTFTSYWMHWVRQAPGQRLEWMGNINPSNGGTKYNEKFQGRVTITVDTSASTAYMELSSLRSEDTAVYYCARRDYGSPSYWGQGTTVTVSS
VL: DIQMTQSPSSLSASVGDRVTITCKASQDINSYLTWFQQKPGKAPKSLIYRTNILLDGVPSRFSGSGSGTDYTLTISSLQPEDFATYYCLQYHEFPVTFGGGTKLEIKR
notes: Humanized 1F2F9; also called Huab1F2F9.12
Take B1: in assay [1], the binding result was “binds”.

B2: Hab1F2F9.15 (antibody, human IgG1, kappa, L234A L235A, V domains shown)
VH: QVQLVQSGAEVKKPGASVKVSCKASGYTFTSYWMHWVRQAPGQRLEWMGNINPSNGGTKYSQKFQGRVTITVDTSASTAYMELSSLRSEDTAVYYCARRDYGSPSYWGQGTTVTVSS
VL: DIQMTQSPSSLSASVGDRVTITCKASQDINSYLTWFQQKPGKAPKSLIYRTNILLDGVPSRFSGSGSGTDYTLTISSLQPEDFATYYCLQYHEFPVTFGGGTKLEIKR
notes: Humanized 1F2F9; also called Huab1F2F9.15; HuablF2F9.15
Consider B2, for which the binding result in assay [1] and in assay [2] was “binds” each time.

B3: Hab7C3C2.5 (antibody, human IgG1, kappa, L234A L235A, V domains shown)
VH: QVQLVQSGAEVKKPGASVKVSCKASGYTFTSYDINWVRQATGQGLEWIGWIYPRDGFTKYNEKFKGRVTLTVNTSISTAYMELSSLRSEDTAVYYCARKEGYRGDWYFDVWGQGTTVTVSS
VL: DIQMTQSPSSLSASVGDRVTITCRASGNVHNYLAWYQQKPGKAPKLLLYNAKTLASGVPSRFSGSGSGTDYTLTISSLQPEDFATYYCQHFWSTPWTFGGGTELEIKR
notes: Humanized 7C3C2; also called Hab7C3C.5
For the molecule B3, the binding result in assay [1] and in assay [2] was “binds” each time.

B4: Hab7C3C2.9 (antibody, human IgG1, kappa, L234A L235A, V domains shown)
VH: QVQLVQSGAEVKKPGASVKVSCKASGYTFTSYDINWVRQATGQGLEWMGWIYPRDGFTKYAQKFQGRVTITVNTSISTAYMELSSLRSEDTAVYYCARKEGYRGDWYFDVWGQGTTVTVSS
VL: DIQMTQSPSSLSASVGDRVTITCRASGNVHNYLAWYQQKPGKAPKLLLYNAKTLASGVPSRFSGSGSGTDYTLTISSLQPEDFATYYCQHFWSTPWTFGGGTELEIKR
notes: Humanized 7C3C2; also called Huab7C3C.9
Turning to B4, in assay [1], the binding entry is reported as “binds”.
